According to US8709998 (dated 2014):

Experiment: general procedure: Fmoc solid-phase peptide synthesis; Rink Amide MBHA resin (Novabiochem), 0.72 mmol/g; HBTU/HOBT/DIEA; DIC/HOBT or HATU/HOAT for manual couplings
Details: for final HPLC purity: analytical HPLC
[1] = whole synthesis, scale of the general procedure 0.25 mmol

Row | Substance | final HPLC purity [1] | isolated yield [1] | further results
1 | Camptothecin-20-(S)—O-glycinyl-succinyl-Aepa-(Doc)2-DPhe-Gln-Trp-Ala-Val-βAla-His-Leu-Leu-NH2 | 99.9% |  | 
2 | Camptothecin-20-(S)—O-glycinyl-succinyl-Aepa-(Doc)2-Gln-Trp-Ala-Val-βAla-His-Leu-Leu-NH2 | 99.9% |  | 
3 | Camptothecin-20-(S)—O-glycinyl-succinyl-Aepa-(Doc)4-DPhe-Gln-Trp-Ala-Val-βAla-His-Leu-Leu-NH2 | 99.9% |  | 
4 | Camptothecin-20-(S)—O-glycinyl-succinyl-Aepa-(Doc)4-Gln-Trp-Ala-Val-βAla-His-Leu-Leu-NH2 |  |  | final HPLC purity (whole synthesis, scale 0.125 mmol): 96.1%
5 | Camptothecin-20-(S)—O-glycyl-glutaryl-Aepa-Lys-DTyr-DTyr-cyclo(Cys-Tyr-DTrp-Lys-Abu-Cys)-Thr-NH2 | 95% | 11% | 
6 | Camptothecin-20-(S)—O-glycyl-succinyl-Doc-Doc-Doc-Doe-Aepa-DPhe-cyclo(Cys-Tyr-DTrp-Lys-Abu-Cys)-Thr-NH2 | 99% | 32% | 
7 | Camptothecin-20-glutaryl-(Doc)4-Lys-DTyr-DTyr-cyclo(Cys-Tyr-DTrp-Lys-Abu-Cys)-Thr-NH2 | 98.9% | 10% | 
8 | Camptothecin-20-glycinyl-succinoyl-DPhe-cyclo(Cys-Tyr-DTrp-Lys-Abu-Cys)-Thr-NH2 | 94% | 15.6% | 
9 | Camptothecin-Abu-succinyl-(Doc)4-Lys-DTyr-DTyr-cyclo(Cys-Tyr-DTrp-Lys-Abu-Cys)-Thr-NH2 | 95% | 23% | 
10 | Camptothecin-Gly-Suc-(Doc)4-Aepa-Gaba-Gln-Trp-Ala-Val-βAla-His-Leu-Nle-NH2 | 99.4% | 14.4% | 
11 | Camptothecin-Gly-glutaryl-Lys-DTyr-DTyr-cyclo(Cys-Tyr-DTrp-Lys-Abu-Cys)-Thr-NH2 | 99% | 23% | 
12 | Camptothecin-Gly-glutaryl-Lys-Lys-Lys-DTyr-DTyr-cyclo(Cys-Tyr-DTrp-Lys-Abu-Cys)-Thr-NH2 | 100% | 12% | 
13 | Camptothecin-Gly-succinyl-(Doc)4-DPhe-c(Cys-Tyr-DTrp-Lys-Abu-Cys)-Thr-NH2 | 100% | 31% | 
14 | Camptothecin-Gly-succinyl-(Doc)6-DPhe-c(Cys-Tyr-DTrp-Lys-Abu-Cys)-Thr-NH2 | 98% | 18% | 
15 | Camptothecin-Gly-succinyl-Aepa-DPhe-cyclo(Cys-Tyr-DTrp-Lys-Abu-Cys)-Thr-NH2 | 97% | 21% | 
16 | Camptothecin-glutaryl-(Doc)2-Lys-DTyr-DTyr-cyclo(Cys-Tyr-DTrp-Lys-Abu-Cys)-Thr-NH2 | 95% | 11% | 
17 | Camptothecin-glutaryl-Doc-Lys-DTyr-DTyr-cyclo(Cys-Tyr-DTrp-Lys-Abu-Cys)-Thr-NH2 | 95% | 16% | 

Row | Substance | final HPLC purity [1] | isolated yield [1] | further results
18 | H-Doc-Doc-Doc-Aepa-DPhe-cyclo(Cys-Tyr-DTrp-Lys(Aloc)-Abu-Cys)-Thr-NH2 |  | 42% yield | isolated mass (whole synthesis): 180 mg
19 | H-Doc-Doc-Doc-Doc-Aepa-DPhe-cyclo(Cys-Tyr-DTrp-Lys(Aloc)-Abu-Cys)-Thr-NH2 |  | 40% yield | isolated mass (whole synthesis): 186 mg
20 | Paclitaxel-2′-Doc-Suc-(Doc)3-Aepa-DPhe-cyclo(Cys-Tyr-DTrp-Lys-Abu-Cys)-Thr-NH2 |  |  | final HPLC purity (late stage modification step): 99.9%
21 | Paclitaxel-2′-O-Gly-Succinyl-Aepa-Lys-DTyr-DTyr-cyclo(Cys-Tyr-DTrp-Lys-Abu-Cys)-Thr-NH2 |  |  | final HPLC purity (whole synthesis, scale 0.1 mmol): 98%
22 | Paclitaxel-2′-O-Val-Succinyl-Aepa-Lys-DTyr-DTyr-cyclo(Cys-Tyr-DTrp-Lys-Abu-Cys)-Thr-NH2 | 95% |  | 
23 | Paclitaxel-2′-O-Val-Succinyl-DPhe-cyclo(Cys-Tyr-DTrp-Lys-Abu-Cys)-Thr-NH2 | 99% |  | 
24 | Paclitaxel-2′-glutaryl-(Doc)4-Aepa-DPhe-cyclo(Cys-Tyr-DTrp-Lys-Abu-Cys)-Thr-NH2 |  |  | conjugation yield (conjugation step): 60%; final HPLC purity (late stage modification step): 99.9%
25 | Paclitaxel-Sar-Suc-(Doc)4-Aepa-DPhe-cyclo(Cys-Tyr-DTrp-Lys-Abu-Cys)-Thr-NH2 |  |  | conjugation yield (conjugation step): 18.8%; final HPLC purity (conjugation step): 95%
26 | Paclitaxel-Sar-Suc-(Doc)4-Aepa-Gaba-Gln-Trp-Ala-Val-βAla-His-Leu-Nle-NH2 | 98% | 13.4% | 
27 | Paclitaxel-Suc-(Doc)4-Gaba-Gln-Trp-Ala-Val-βAla-His-Leu-Nle-NH2 | 97% | 12.1% | 
28 | {5-(R)-Ethyl-9,10-difluoro-1,4,5,13-tetrahydro-3H,15H-oxepino[3′,4′:6,7]indolizino[1,2-b]quinoline-3,15-dione-5-O-glycyl-glutaryl}-(Doc)4-Lys-DTyr-DTyr-cyclo(Cys-Tyr-DTrp-Lys-Abu-Cys)-Thr-NH2 | 99% | 21.4% | 
29 | {5-(R)-Ethyl-9,10-difluoro-1,4,5,13-tetrahydro-3H,15H-oxepino[3′,4′:6,7]indolizino[1,2-b]quinoline-3,15-dione-5-O-glycyl-glutaryl}-(Doc)6-Lys-DTyr-DTyr-cyclo(Cys-Tyr-DTrp-Lys-Abu-Cys-)-Thr-NH2 | 99.9% |  | isolated yield (whole synthesis, scale 0.196 mmol): 25%
30 | {5-(R)-Ethyl-9,10-difluoro-1,4,5,13-tetrahydro-3H,15H-oxepino[3′,4′:6,7]indolizino[1,2-b]quinoline-3,15-dione-5-O-glycyl-glutaryl}-Aepa-Lys-DTyr-DTyr-cyclo(Cys-Tyr-DTrp-Lys-Abu-Cys)-Thr-NH2 | 95% | 24% | 
31 | {5-(R)-Ethyl-9,10-difluoro-1,4,5,13-tetrahydro-3H,15H-oxepino[3′,4′:6,7]indolizino[1,2-b]quinoline-3,15-dione-5-O-glycyl-succinyl}-(Doc)4-Aepa-DPhe-cyclo(Cys-Tyr-DTrp-Lys-Abu-Cys)-Thr-NH2 | 97% | 25% | 
32 | {5-(R)-Ethyl-9,10-difluoro-1,4,5,13-tetrahydro-3H,15H-oxepino[3′,4′:6,7]indolizino[1,2-b]quinoline-3,15-dione-5-O-glycyl-succinyl}-(Doc)4-Aepa-Lys-DTyr-DTyr-c(Cys-Tyr-DTrp-Lys-Abu-Cys)-Thr-NH2 | 99.9% | 48% | 
33 | {5-(R)-Ethyl-9,10-difluoro-1,4,5,13-tetrahydro-3H,15H-oxepino[3′,4′:6,7]indolizino[1,2-b]quinoline-3,15-dione-5-O-glycyl-succinyl}-Aepa-DPhe-cyclo(Cys-Tyr-DTrp-Lys-Abu-Cys)-Thr-NH2 | 99.9% | 48% | 
